From patent publication US20220372447A1 come the findings set out here.

The chains behind the UniProt entries cited, without tags or fusion partners. Residues count along the entry.
UniProt Q60793, residues 10-483: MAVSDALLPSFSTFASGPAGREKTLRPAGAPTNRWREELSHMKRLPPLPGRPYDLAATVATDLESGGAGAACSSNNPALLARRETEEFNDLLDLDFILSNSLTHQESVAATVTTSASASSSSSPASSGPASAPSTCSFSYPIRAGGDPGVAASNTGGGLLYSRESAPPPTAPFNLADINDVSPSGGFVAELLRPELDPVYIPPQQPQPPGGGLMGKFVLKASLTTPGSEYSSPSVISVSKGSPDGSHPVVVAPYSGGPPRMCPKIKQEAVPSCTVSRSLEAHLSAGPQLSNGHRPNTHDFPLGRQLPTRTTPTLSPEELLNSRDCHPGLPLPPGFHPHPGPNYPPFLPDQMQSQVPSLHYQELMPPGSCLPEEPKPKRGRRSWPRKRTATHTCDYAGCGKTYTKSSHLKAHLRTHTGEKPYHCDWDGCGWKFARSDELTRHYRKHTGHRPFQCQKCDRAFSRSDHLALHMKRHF
UniProt P48432: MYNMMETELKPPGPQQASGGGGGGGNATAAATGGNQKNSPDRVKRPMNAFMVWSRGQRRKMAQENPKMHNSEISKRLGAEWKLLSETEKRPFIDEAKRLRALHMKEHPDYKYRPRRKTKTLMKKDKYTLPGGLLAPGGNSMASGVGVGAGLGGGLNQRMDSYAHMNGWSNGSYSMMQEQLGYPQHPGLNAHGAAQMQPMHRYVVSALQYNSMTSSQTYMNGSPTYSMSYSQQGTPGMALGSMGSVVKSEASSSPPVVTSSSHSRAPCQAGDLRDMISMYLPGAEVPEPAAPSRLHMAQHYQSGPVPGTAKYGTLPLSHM

The experiment addresses Klf4 (UniProt Q60793). Briefly: co-immunoprecipitation from lysate of day 2 reprogramming secondary MEFs, western blot detection. (In western blotting, separated proteins are transferred to a membrane and probed.)

No constants are given. Whether binding was seen depends on the method and setting. In cells and extracts the contact can be indirect. Some binding calls cover weakened binding; strength is not graded here.

Consider Sox2 (from UniProt P48432 1-319), for which the binding entry is reported as “binds”.
